No constants are given. Whether binding was seen depends on the method and setting. Some binding calls cover weakened binding; strength is not graded here.
Columns and labels:
[1] = target: PTEN-induced kinase 1, N-terminal mCherry (human) (UniProt Q9BXM7); assay: two-colour coincidence detection (TCCD), single-molecule fluorescence; N-mCherry PINK1 co-expressed in LTE with N-GFP LB proteins; 300 s traces, triplicate; Association Quotient Q
[2] = target: T1, PTEN-induced kinase 1, N-terminal mCherry (human), Q9BXM7; assay: single-molecule fluorescence of the cell-free expressed protein; PINK1 expressed in the LTE cell-free system; aggregates observed; no further detail; conditions: remark: other sources report otherwise
T1 chain: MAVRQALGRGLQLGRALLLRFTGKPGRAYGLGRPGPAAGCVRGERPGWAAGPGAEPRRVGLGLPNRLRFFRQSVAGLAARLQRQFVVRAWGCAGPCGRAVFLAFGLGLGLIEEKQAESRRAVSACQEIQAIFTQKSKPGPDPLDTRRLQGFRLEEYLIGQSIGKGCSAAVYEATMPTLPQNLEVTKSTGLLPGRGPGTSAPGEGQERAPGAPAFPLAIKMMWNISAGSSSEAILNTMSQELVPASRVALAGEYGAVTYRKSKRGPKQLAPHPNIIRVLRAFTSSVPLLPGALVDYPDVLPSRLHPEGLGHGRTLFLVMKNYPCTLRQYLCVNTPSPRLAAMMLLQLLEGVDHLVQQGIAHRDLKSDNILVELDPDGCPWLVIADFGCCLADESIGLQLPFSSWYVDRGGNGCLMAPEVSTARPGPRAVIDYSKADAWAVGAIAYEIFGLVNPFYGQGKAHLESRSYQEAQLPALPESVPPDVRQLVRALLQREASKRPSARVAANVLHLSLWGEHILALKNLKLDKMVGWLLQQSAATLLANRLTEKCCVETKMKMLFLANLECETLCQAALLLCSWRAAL

| Binder | binding [1] | binding [2] |
| --- | --- | --- |
| TGM2 (enzyme, UniProt P21980 1-687) MAEELVLERCDLELETNGRDHHTADLCREKLVVRRGQPFWLTLHFEGRNYEASVDSLTFSVVTGPAPSQEAGTKARFPLRDAVEEGDWTATVVDQQDCTLSLQLTTPANAPIGLYRLSLEASTGYQGSSFVLGHFILLFNAWCPADAVYLDSEEERQEYVLTQQGFIYQGSAKFIKNIPWNFGQFEDGILDICLILLDVNPKFLKNAGRDCSRRSSPVYVGRVVSGMVNCNDDQGVLLGRWDNNYGDGVSPMSWIGSVDILRRWKNHGCQRVKYGQCWVFAAVACTVLRCLGIPTRVVTNYNSAHDQNSNLLIEYFRNEFGEIQGDKSEMIWNFHCWVESWMTRPDLQPGYEGWQALDPTPQEKSEGTYCCGPVPVRAIKEGDLSTKYDAPFVFAEVNADVVDWIQQDDGSVHKSINRSLIVGLKISTKSVGRDEREDITHTYKYPEGSSEEREAFTRANHLNKLAEKEETGMAMRIRVGQSMNMGSDFDVFAHITNNTAEEYVCRLLLCARTVSYNGILGPECGTKYLLNLNLEPFSEKSVPLCILYEKYRDCLTESNLIKVRALLVEPVINSYLLAERDLYLENPEIKIRILGEPKQKRKLVAEVSLQNPLPVALEGCTFTVEGAGLTEEQKTVEIPDPVEAGEEVKVRMDLLPLHMGLHKLVVNFESDKLKAVKGFRNVIIGPA | binds | – |
| PTEN-induced kinase 1, N-terminal mCherry, Q9BXM7 1-581 (protein) MAVRQALGRGLQLGRALLLRFTGKPGRAYGLGRPGPAAGCVRGERPGWAAGPGAEPRRVGLGLPNRLRFFRQSVAGLAARLQRQFVVRAWGCAGPCGRAVFLAFGLGLGLIEEKQAESRRAVSACQEIQAIFTQKSKPGPDPLDTRRLQGFRLEEYLIGQSIGKGCSAAVYEATMPTLPQNLEVTKSTGLLPGRGPGTSAPGEGQERAPGAPAFPLAIKMMWNISAGSSSEAILNTMSQELVPASRVALAGEYGAVTYRKSKRGPKQLAPHPNIIRVLRAFTSSVPLLPGALVDYPDVLPSRLHPEGLGHGRTLFLVMKNYPCTLRQYLCVNTPSPRLAAMMLLQLLEGVDHLVQQGIAHRDLKSDNILVELDPDGCPWLVIADFGCCLADESIGLQLPFSSWYVDRGGNGCLMAPEVSTARPGPRAVIDYSKADAWAVGAIAYEIFGLVNPFYGQGKAHLESRSYQEAQLPALPESVPPDVRQLVRALLQREASKRPSARVAANVLHLSLWGEHILALKNLKLDKMVGWLLQQSAATLLANRLTEKCCVETKMKMLFLANLECETLCQAALLLCSWRAAL | – | binds |
| αβ-crystallin (protein, UniProt P02511 1-175) MDIAIHHPWIRRPFFPFHSPSRLFDQFFGEHLLESDLFPTSTSLSPFYLRPPSFLRAPSWFDTGLSEMRLEKDRFSVNLDVKHFSPEELKVKVLGDVIEVHGKHEERQDEHGFISREFHRKYRIPADVDPLTITSSLSSDGVLTVNGPRKQVSGPERTIPITREEKPAVTAAPKK | no binding | – |

Reference: PMC8460662
